{"sequences": {"note": "Chains of the proteins cited; added tags and fusions are not shown.", "UniProt Q03164, whole entry, looked up": "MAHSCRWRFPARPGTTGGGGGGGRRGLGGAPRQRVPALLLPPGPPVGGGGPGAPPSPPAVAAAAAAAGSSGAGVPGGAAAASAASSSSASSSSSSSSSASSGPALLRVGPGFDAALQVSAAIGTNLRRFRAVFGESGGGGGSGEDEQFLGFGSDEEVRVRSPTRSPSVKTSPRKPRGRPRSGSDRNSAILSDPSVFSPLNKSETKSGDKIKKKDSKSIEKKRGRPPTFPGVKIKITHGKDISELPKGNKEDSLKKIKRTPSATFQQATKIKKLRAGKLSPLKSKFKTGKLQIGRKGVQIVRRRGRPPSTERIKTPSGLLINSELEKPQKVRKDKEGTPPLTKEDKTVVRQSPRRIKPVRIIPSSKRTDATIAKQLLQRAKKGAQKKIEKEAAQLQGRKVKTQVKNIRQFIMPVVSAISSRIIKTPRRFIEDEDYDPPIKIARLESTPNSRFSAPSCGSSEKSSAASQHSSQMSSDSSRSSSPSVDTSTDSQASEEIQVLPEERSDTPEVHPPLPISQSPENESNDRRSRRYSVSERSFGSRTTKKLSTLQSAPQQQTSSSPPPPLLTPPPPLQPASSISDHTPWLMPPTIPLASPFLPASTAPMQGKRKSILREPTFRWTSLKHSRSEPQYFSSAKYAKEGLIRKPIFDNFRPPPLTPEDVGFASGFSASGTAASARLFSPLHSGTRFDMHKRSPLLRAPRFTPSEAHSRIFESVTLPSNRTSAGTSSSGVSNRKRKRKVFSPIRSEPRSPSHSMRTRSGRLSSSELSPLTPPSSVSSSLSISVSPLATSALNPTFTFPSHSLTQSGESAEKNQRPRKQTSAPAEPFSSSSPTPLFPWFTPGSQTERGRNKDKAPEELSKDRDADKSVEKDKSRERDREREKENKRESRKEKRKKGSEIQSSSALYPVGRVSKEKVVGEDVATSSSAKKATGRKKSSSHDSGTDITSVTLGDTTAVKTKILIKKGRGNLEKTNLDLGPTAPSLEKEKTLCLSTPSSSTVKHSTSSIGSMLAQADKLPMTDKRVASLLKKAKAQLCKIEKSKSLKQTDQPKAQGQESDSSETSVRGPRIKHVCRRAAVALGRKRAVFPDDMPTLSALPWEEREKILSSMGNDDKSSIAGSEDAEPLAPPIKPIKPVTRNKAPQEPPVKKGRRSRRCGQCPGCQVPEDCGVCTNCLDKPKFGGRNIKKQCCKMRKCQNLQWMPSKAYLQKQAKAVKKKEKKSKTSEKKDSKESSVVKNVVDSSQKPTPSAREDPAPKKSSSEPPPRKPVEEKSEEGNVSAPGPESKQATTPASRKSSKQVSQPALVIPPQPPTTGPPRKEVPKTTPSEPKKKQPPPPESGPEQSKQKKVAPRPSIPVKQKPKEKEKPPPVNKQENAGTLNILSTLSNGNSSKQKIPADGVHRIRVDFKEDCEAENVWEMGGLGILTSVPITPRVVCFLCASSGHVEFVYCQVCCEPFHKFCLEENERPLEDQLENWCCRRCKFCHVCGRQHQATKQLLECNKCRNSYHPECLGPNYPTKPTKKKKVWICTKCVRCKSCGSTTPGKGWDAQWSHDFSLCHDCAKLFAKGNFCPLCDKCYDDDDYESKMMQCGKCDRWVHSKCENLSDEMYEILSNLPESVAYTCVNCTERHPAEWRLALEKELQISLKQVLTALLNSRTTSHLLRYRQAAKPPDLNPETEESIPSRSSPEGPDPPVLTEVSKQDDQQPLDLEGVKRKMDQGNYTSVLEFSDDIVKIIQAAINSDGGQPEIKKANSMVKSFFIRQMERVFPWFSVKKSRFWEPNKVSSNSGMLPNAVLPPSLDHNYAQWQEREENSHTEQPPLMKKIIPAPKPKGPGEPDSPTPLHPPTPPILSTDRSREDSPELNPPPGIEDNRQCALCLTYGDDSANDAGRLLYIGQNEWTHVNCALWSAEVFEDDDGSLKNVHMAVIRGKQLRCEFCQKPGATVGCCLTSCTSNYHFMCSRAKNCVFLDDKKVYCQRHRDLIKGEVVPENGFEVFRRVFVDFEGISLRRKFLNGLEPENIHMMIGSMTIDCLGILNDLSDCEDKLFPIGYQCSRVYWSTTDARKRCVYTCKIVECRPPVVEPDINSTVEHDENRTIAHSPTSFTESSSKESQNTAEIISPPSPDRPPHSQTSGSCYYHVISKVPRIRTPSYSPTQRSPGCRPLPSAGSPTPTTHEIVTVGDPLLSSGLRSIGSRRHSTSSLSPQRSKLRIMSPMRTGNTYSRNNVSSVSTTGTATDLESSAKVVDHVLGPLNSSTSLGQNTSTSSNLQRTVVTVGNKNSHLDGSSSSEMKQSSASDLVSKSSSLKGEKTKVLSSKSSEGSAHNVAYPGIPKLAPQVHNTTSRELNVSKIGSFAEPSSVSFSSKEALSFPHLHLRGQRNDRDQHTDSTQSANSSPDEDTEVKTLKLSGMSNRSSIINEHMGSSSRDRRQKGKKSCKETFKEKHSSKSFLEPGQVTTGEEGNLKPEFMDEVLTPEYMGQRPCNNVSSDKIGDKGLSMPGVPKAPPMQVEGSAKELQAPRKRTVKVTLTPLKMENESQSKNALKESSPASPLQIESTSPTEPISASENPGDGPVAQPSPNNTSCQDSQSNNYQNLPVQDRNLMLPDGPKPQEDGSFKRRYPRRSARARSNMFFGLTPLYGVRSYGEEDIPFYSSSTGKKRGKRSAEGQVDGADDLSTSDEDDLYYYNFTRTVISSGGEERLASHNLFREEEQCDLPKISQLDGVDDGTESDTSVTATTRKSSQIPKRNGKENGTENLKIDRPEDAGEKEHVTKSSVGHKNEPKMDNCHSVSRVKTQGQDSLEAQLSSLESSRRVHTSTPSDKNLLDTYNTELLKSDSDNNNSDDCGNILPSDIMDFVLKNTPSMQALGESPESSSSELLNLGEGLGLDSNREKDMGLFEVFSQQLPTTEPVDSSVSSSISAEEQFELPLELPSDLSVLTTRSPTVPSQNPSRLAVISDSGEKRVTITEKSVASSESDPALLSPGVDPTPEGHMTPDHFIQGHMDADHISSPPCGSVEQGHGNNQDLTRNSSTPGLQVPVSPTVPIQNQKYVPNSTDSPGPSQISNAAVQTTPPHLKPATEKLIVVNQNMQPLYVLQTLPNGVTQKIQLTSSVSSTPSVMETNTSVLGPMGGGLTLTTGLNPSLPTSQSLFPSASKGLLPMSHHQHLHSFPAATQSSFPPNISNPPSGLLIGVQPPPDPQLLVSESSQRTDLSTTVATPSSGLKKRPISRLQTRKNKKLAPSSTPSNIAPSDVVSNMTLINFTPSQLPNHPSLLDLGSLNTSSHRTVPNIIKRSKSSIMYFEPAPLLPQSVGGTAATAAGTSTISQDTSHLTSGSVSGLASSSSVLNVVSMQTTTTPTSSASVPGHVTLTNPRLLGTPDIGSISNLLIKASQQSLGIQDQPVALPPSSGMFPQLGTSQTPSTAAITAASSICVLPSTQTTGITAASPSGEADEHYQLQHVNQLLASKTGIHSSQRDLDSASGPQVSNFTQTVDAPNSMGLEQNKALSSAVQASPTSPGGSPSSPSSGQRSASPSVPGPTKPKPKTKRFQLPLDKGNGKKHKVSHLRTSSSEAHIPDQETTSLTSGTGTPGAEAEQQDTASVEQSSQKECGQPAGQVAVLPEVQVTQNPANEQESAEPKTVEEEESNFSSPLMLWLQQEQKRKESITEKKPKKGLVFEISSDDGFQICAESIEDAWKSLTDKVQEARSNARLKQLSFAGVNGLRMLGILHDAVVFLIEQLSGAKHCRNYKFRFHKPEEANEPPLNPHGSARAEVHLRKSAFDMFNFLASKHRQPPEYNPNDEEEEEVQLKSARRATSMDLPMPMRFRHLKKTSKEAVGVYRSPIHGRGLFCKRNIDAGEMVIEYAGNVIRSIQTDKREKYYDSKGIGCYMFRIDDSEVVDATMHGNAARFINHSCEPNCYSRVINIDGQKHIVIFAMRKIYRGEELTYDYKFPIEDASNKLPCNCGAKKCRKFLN"}, "source": "PubChem BioAssay AID2662", "about": "(National Center for Advancing Translational Sciences (NCATS), 2010)", "note": "Hit rate of the full screen: of about 290,000 compounds, about 110 (0.038%) were called active. The inconclusive results got no clear call from the source; some entries with a clear call stand among them for comparison. Calls follow the shape of the dose curve; as a rule, active = well fitted inhibition curve with a large enough effect in the polarisation, with a control signal flat (not every such curve was filed as active); inconclusive = small, poorly fitted or top-dose-only effect, or effect the other way, or a change in a side signal; inactive = no such curve, though single readings can be large or run the other way; the % refers to the polarisation. Potencies of inconclusive entries are doubtful fits and often do not repeat. A note “side channel” means that the fit belongs to a control or component signal, not to the main read-out. Potency is read from the fitted curve at half-maximal effect.", "data": [{"biological_target": "Histone-lysine N-methyltransferase 2A (Homo sapiens) (UniProt Q03164)", "assay": "qHTS Fluorescence Polarization Assay for Inhibitors of MLL CXXC domain - DNA interaction", "settings": "MLL-CXXC / FITC-HOXA9 DNA fluorescence polarization; series mostly up to 115 µM", "how_it_was_run": "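Purified MLL-CXXC (added from a 7 uM solution) was preincubated 5 min at ambient with pinned compounds in 50 mM Tris-HCl pH 7.5, 50 mM NaCl, 1 mM DTT, 0.05% BSA. Fluorescein-labeled HOX-A9 DNA (50 nM solution) followed, 30 min, then polarization read.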", "values": [{"smiles": "Cc1nc2c(C(=O)NCc3ccc4c(c3)OCO4)cnn2c(C)c1Cc1ccc(F)cc1Cl", "Potency": "inactive"}, {"smiles": "CCOC(=O)C(C)Sc1nc2c(c(=O)[nH]c(=O)n2C)n1Cc1ccc(Cl)cc1", "note": "(stereo unspecified)", "Potency": "inactive"}, {"smiles": "O=C(CC1C(=O)NCCN1Cc1ccccc1C(F)(F)F)NCCc1ccccn1", "note": "(stereo unspecified)", "Potency": "inconclusive: 15.8 µM [inhibitor, single point]"}, {"smiles": "Cn1c(=O)n(C)c2cc(NC(=O)c3ccccc3[N+](=O)[O-])c(Br)cc21", "Potency": "inactive"}, {"smiles": "Cc1ccc(C(=O)NCc2nc3ccccc3[nH]2)o1", "Potency": "inconclusive: 12.6 µM [fluorescent, side channel, single point]"}, {"smiles": "CC1=NN(c2ccccc2)C(=O)C1", "Potency": "inconclusive: 89.1 µM [inhibitor, single point]"}, {"smiles": "COc1ccc(NC(=O)Cc2nnc(SCC(=O)Nc3cc(C)ccc3OC)n2C)cc1", "Potency": "inactive"}, {"smiles": "CC1CN(c2nc3ccccc3cc2-c2ccccc2)CC(C)O1", "note": "(stereo unspecified)", "Potency": "inactive"}, {"smiles": "O=C(Nc1ccc(NC(=O)C2CC2)nc1)c1cnccn1", "Potency": "inconclusive: 35.5 µM [fluorescent, side channel, single point]"}, {"smiles": "COc1cc(SC#N)ccc1N=Cc1c(C)[nH]n(-c2ccc(C)cc2)c1=O", "Potency": "inconclusive: 14.1 µM [inhibitor, single point]"}, {"smiles": "C=CCSC1=N/C(=C\\c2ccc(C(=O)O)cc2)C(=O)S1", "Potency": "inconclusive: 63.1 µM [inhibitor, single point]"}, {"smiles": "COc1ccc(Nc2cc(Nc3cc(OC)c(OC)c(OC)c3)ncn2)cc1", "Potency": "inconclusive: 1.26 µM [fluorescent, side channel, partial curve, poor fit]"}, {"smiles": "O=C(Cc1cccs1)Nc1nnc(SCc2ccc(Br)cc2)s1", "Potency": "inconclusive: 89.1 µM [fluorescent, side channel, single point]"}, {"smiles": "COC(=O)Nc1ccc(S(=O)(=O)N2CCCc3ccccc32)cc1", "Potency": "inconclusive: 1.41 µM [quencher, side channel, full curve, poor fit]"}, {"smiles": "CCN1CCN(CCOc2cccc(Cl)c2Cl)CC1", "Potency": "inconclusive: 35.5 µM [inhibitor, single point]"}, {"smiles": "Cc1nnc(SCC2=C(C(=O)O)N3C(=O)C(NC(=O)Cn4nc(C(F)F)c(Cl)c4C)C3SC2)s1", "note": "(stereo unspecified)", "Potency": "inconclusive: 2.24 µM [fluorescent, side channel, full curve]"}, {"smiles": "O=C(Nc1ccc(N2CCN(C(=O)c3ccccc3)CC2)cc1)c1ccc2c(c1)OCCO2", "Potency": "inconclusive: 2.51 µM [fluorescent, side channel, full curve]"}, {"smiles": "Fc1ccc(-c2nc3ccccc3c3nc4ccccc4n23)cc1", "Potency": "inconclusive: 63.1 µM [inhibitor, single point]"}, {"smiles": "COc1ccccc1N1CCN(C(=O)COc2ccc(S(=O)(=O)NC(C)C)cc2)CC1", "Potency": "inconclusive: 10 µM [fluorescent, side channel, single point]"}, {"smiles": "CCOC(=O)c1sc(=N)n(-c2ccc(OC)cc2)c1C", "Potency": "inactive"}, {"smiles": "CCOc1ccc(CCNC(=O)CCS(=O)(=O)c2ccc(C)cc2)cc1OCC", "Potency": "inconclusive: 11.2 µM [fluorescent, side channel, single point]"}, {"smiles": "CCN(CC)c1ccc2cc(-c3nnc(-c4ccncc4)o3)c(=O)oc2c1", "Potency": "inconclusive: 3.55 µM [fluorescent, side channel, full curve]"}, {"smiles": "CCn1c(=O)c2sccc2n(Cc2ccccc2)c1=O", "Potency": "inconclusive: 89.1 µM [fluorescent, side channel, single point]"}, {"smiles": "Cc1ccc2c(c1)Sc1c(ccc3ccccc13)N2", "Potency": "inconclusive: 63.1 µM [inhibitor, single point]"}, {"smiles": "CS(=O)(=O)Nc1ccc(C2=NN(C(=O)CCCC(=O)O)C(c3cccs3)C2)cc1", "note": "(stereo unspecified)", "Potency": "inconclusive: 1.58 µM [fluorescent, side channel, full curve]"}, {"smiles": "Cc1nc2nc(C)c(NS(=O)(=O)c3cccs3)c(=O)n2[nH]1", "Potency": "inconclusive: 15.8 µM [fluorescent, side channel, partial curve]"}, {"smiles": "CC(C)COc1cccc(C(=O)NC(=S)Nc2cccc(NC(=O)c3ccccc3Cl)c2)c1", "Potency": "inconclusive: 31.6 µM [quencher, side channel, partial curve]"}, {"smiles": "N#C/C(=C\\c1ccc(OCCN2CCOCC2)cc1)C(=O)Nc1ccccc1", "Potency": "inconclusive: 89.1 µM [quencher, side channel, single point]"}, {"smiles": "CCCCOc1ccc(-c2cc(C(=O)NNC(=S)NCC)c3ccccc3n2)cc1", "Potency": "inconclusive: 39.8 µM [fluorescent, side channel, single point]"}, {"smiles": "COc1ccc(C2=C(Nc3ccc(F)cc3)c3ccccc3C2=O)cc1", "Potency": "inactive"}, {"smiles": "Oc1cccc2ccc(Nc3ccccn3)nc12", "Potency": "inconclusive: 31.6 µM [quencher, side channel, partial curve]"}, {"smiles": "O=[N+]([O-])c1ccc(N/N=C/c2c[nH]c3ccccc23)cc1", "Potency": "inactive"}, {"smiles": "O=C(O)CCC(=O)Nc1ccccc1C(=O)NCCc1ccccc1", "Potency": "inactive"}, {"smiles": "COc1ccc(C(=O)/C=C/C(=O)N(CC(=O)NC2CCCCC2)Cc2ccccc2OC)c(O)c1", "Potency": "inactive"}, {"smiles": "Cc1ccc(N=Cc2sc(O)c3ccccc23)cc1", "Potency": "inconclusive: 15.8 µM [fluorescent, side channel, partial curve]"}, {"smiles": "C=C(C)C1(O)OC(=O)C=C1OC", "note": "(stereo unspecified)", "Potency": "inconclusive: 20 µM [inhibitor, partial curve]"}, {"smiles": "Cc1ccc(-c2cc(=O)c3cc(F)ccc3[nH]2)cc1", "Potency": "inactive"}, {"smiles": "CCNC(=S)N(Cc1ccco1)Cc1cc2cc3c(cc2[nH]c1=O)OCCO3", "Potency": "inconclusive: 31.6 µM [fluorescent, side channel, single point]"}, {"smiles": "O=C(CN1CCN(S(=O)(=O)c2ccc(Br)cc2)CC1)Nc1ccc(F)cc1F", "Potency": "inactive"}, {"smiles": "CN(C)Cc1c(O)ccc2c1O/C(=C\\C=C\\c1ccccc1)C2=O", "Potency": "inconclusive: 35.5 µM [fluorescent, side channel, partial curve]"}, {"smiles": "COc1ccc(-c2cnn3cc(-c4cccc(Cl)c4)cnc23)cc1", "Potency": "inconclusive: 56.2 µM [fluorescent, side channel, single point]"}]}]}
